Experimental data: PubChem BioAssay AID1259328 (Drosophila RNAi Screening Center, 2017)

Assay: 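Metal-linked candidate genes that shift zinc chloride toxicity in S2R+ cells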
System: Drosophila S2R+ cells
Reagents: long dsRNA against Drosophila genes
Time to read-out: 5 days (4 days knock-down, then 1 day metal)
Challenge: zinc chloride added to 15 mM final for 1 day
Read-out: 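ATP luminescence per well as a viability signal, measured after 4 days of knock-down and 1 day of 15 mM zinc chloride, reported as mean z-score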
Reading the numbers: ATP z-score, averaged: higher = more ATP, more viable cells under zinc
Hit rule: 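a gene counts as active if its set 1 mean z-score lies outside the range -1.5 to 1.5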
This is one part, drawn at random, of 95 reagents. 6 of them (6.3%) count as active. 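Only two distinct z-score sets exist; calls follow set 1, and set 2 holds one inactive gene scoring above 1.5.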 The record does not give: the amount of reagent.

| ATP z-score, averaged, set 1 | ATP z-score, averaged, set 2 | outcome | target gene | PubChem SID |
| --- | --- | --- | --- | --- |
| 0.491 | -0.0117 | inactive | Rbcn-3A (GeneID 31557) | SID104198106 |
| -0.0301 | -0.179 | inactive | Rbcn-3A (GeneID 31557) | SID104206743 |
| -0.385 | -0.179 | inactive | CG6126 (GeneID 41967) | SID104195763 |
| -0.509 | -0.143 | inactive | CG6126 (GeneID 41967) | SID104217037 |
| -0.305 | -0.221 | inactive | p38c (GeneID 2768679) | SID104202296 |
| -0.452 | -0.42 | inactive | p38c (GeneID 2768679) | SID104214933 |
| 0.012 | -0.281 | inactive | MFS14 (GeneID 46085) | SID104186316 |
| 1.16 | 0.88 | inactive | MFS14 (GeneID 46085) | SID104217328 |
| 0.571 | 0.693 | inactive | Vha68-2 (GeneID 45012) | SID104207181 |
| 0.85 | 0.915 | inactive | Vha68-2 (GeneID 45012) | SID104209638 |
| 0.0991 | 0.08 | inactive | ATP7 (GeneID 32142) | SID104199611 |
| 0.0903 | -0.192 | inactive | ATP7 (GeneID 32142) | SID104217035 |
| -0.638 | -0.33 | inactive | eEF1gamma (GeneID 44791) | SID104202838 |
| -0.248 | -0.556 | inactive | eEF1gamma (GeneID 44791) | SID104213292 |
| 0.618 | 0.769 | inactive | Vha16-1 (GeneID 44307) | SID104184812 |
| 0.0444 | 0.43 | inactive | Vha16-1 (GeneID 44307) | SID104210175 |
| 4.21 | 3.92 | active | anne (GeneID 317815) | SID104208496 |
| 4.86 | 4.72 | active | anne (GeneID 317815) | SID104218426 |
| 0.0514 | -0.0017 | inactive | iPLA2-VIA (GeneID 39160) | SID104190491 |
| -0.256 | -0.302 | inactive | iPLA2-VIA (GeneID 39160) | SID104214747 |
| -0.162 | -0.0874 | inactive | sp3 (GeneID 42545) | SID104196146 |
| -0.0157 | 0.338 | inactive | sp3 (GeneID 42545) | SID104218967 |
| -0.0763 | -0.519 | inactive | Atox1 (GeneID 326216) | SID104201889 |
| -0.263 | -0.17 | inactive | SPoCk (GeneID 40495) | SID104191636 |
| -0.657 | -0.266 | inactive | SPoCk (GeneID 40495) | SID104202986 |
| -0.0609 | -0.33 | inactive | Cdc50 (GeneID 32615) | SID104200016 |
| -0.561 | -0.442 | inactive | MFS10 (GeneID 32263) | SID104205504 |
| -0.326 | -0.216 | inactive | MFS10 (GeneID 32263) | SID104213692 |
| 0.00317 | -0.397 | inactive | rl (GeneID 3354888) | SID104209436 |
| 0.156 | 0.0433 | inactive | rl (GeneID 3354888) | SID104209437 |

Looked up above.
For “ATP z-score, averaged, set 1”, ATP7 (GeneID 32142) [SID104217035] shows 0.0903
Rbcn-3A (GeneID 31557) [SID104198106], ATP z-score, averaged, set 1: 0.491
Value for iPLA2-VIA (GeneID 39160) [SID104214747] under “ATP z-score, averaged, set 1”: -0.256
Value for MFS14 (GeneID 46085) [SID104186316] under “ATP z-score, averaged, set 1”: 0.012
rl (GeneID 3354888) [SID104209436], ATP z-score, averaged, set 2: -0.397
MFS14 (GeneID 46085) [SID104217328], ATP z-score, averaged, set 1: 1.16

Next reagents:
| ATP z-score, averaged, set 1 | ATP z-score, averaged, set 2 | outcome | target gene | PubChem SID |
| --- | --- | --- | --- | --- |
| 1.09 | 1.16 | inactive | Pop2 (GeneID 39366) | SID104190329 |
| -0.00176 | 0.809 | inactive | Pop2 (GeneID 39366) | SID104210359 |
| -0.487 | -0.339 | inactive | Zip99C (GeneID 43533) | SID104196112 |
| -0.401 | -0.0938 | inactive | Zip99C (GeneID 43533) | SID104217598 |
| 0.166 | 0.583 | inactive | CHMP2B (GeneID 38599) | SID104190228 |
| -0.327 | -0.0995 | inactive | CHMP2B (GeneID 38599) | SID104204765 |
| -0.57 | -0.236 | inactive | ZnT63C (GeneID 38407) | SID104202779 |
| -0.294 | -0.22 | inactive | ZnT63C (GeneID 38407) | SID104215274 |
| -0.0283 | -0.15 | inactive | Sod2 (GeneID 36878) | SID104187346 |
| -0.427 | -0.23 | inactive | Sod2 (GeneID 36878) | SID104205594 |
| 1.38 | 1.78 | inactive | mTor (GeneID 47396) | SID104182603 |
| 1.47 | 1.48 | inactive | mTor (GeneID 47396) | SID104218383 |
| -0.324 | 0.0394 | inactive | Catsup (GeneID 48805) | SID104183080 |
| -0.373 | -0.669 | inactive | Catsup (GeneID 48805) | SID104204271 |
| -0.308 | 0.0488 | inactive | Catsup (GeneID 48805) | SID104218000 |
| -0.139 | -0.397 | inactive | p38a (GeneID 42866) | SID104214282 |
| -0.189 | -0.163 | inactive | p38a (GeneID 42866) | SID104214898 |
| 1.03 | 1.18 | inactive | VhaSFD (GeneID 34997) | SID104183263 |
| 0.313 | 0.757 | inactive | VhaSFD (GeneID 34997) | SID104210180 |
| 0.562 | 0.816 | inactive | VhaSFD (GeneID 34997) | SID104210181 |
| -0.475 | -0.246 | inactive | CG6006 (GeneID 41962) | SID104192929 |
| 0.101 | -0.313 | inactive | CG6006 (GeneID 41962) | SID104195738 |
| -0.179 | -0.0928 | inactive | Nhe2 (GeneID 35376) | SID104182964 |
| -0.316 | -0.188 | inactive | Nhe2 (GeneID 35376) | SID104183169 |
| 0.345 | 0.616 | inactive | Vha36-1 (GeneID 44702) | SID104186890 |
| -0.00754 | 0.458 | inactive | Vha36-1 (GeneID 44702) | SID104204168 |
| -0.437 | -0.0885 | inactive | Sac1 (GeneID 38137) | SID104212046 |
| -0.357 | -0.282 | inactive | Sac1 (GeneID 38137) | SID104212047 |
| 2.4 | 2.59 | active | foi (GeneID 38976) | SID104208140 |
| -0.0497 | -0.277 | inactive | foi (GeneID 38976) | SID104213316 |
| -0.688 | -0.00997 | inactive | p38b (GeneID 34780) | SID104214903 |
